Results deposited as PubChem BioAssay AID1259425 (University of Nebraska Medical Center, 2018)
Purpose: 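Seek colon cancer weak points whose silencing resembles KSR1 loss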 (primary screen). Cell system: HCT116 human colon cancer cells. Reagents: siRNA pool against human genes, 50 nM siRNA. Read-out: 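After 50 nM siRNA pool, branched-DNA assay measures six marker transcripts per well, minus blank, normalised to the geometric mean of two housekeeping transcripts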. Reading the numbers: BNIP3L mRNA: higher = more BNIP3L transcript after knockdown; NDRG1 mRNA: higher = more NDRG1 transcript after knockdown; BNIP3 mRNA: higher = more BNIP3 transcript after knockdown; ALDOC mRNA: higher = more ALDOC transcript after knockdown; ACSL5 mRNA: higher = more ACSL5 transcript after knockdown.
Shown is a random part of about 14,000 deposited reagents. Not given: the time to read-out.

| gene symbol | BNIP3L mRNA, set 1 | NDRG1 mRNA, set 1 | BNIP3 mRNA, set 1 | ALDOC mRNA, set 1 | ACSL5 mRNA, set 1 |
| --- | --- | --- | --- | --- | --- |
| CTTNBP2NL | 0.0939 | 0.182 | 0.14 | 0.0349 | 0.0712 |
| RPS4X | 0.0975 | 0.128 | 0.293 | 0.02 | 0.0939 |
| PEMT | 0.139 | 0.249 | 0.46 | 0.0493 | 0.141 |
| ASAP2 | 0.087 | 0.248 | 0.227 | 0.00817 | 0.0755 |
| ENGASE | 0.0876 | 0.128 | 0.23 | 0.0399 | 0.232 |
| ANXA4 | 0.119 | 0.596 | 0.316 | 0.00409 | 0.23 |
| AHSA2P | 0.0771 | 0.274 | 0.226 | 0.039 | 0.257 |
| SLC35D4 | 0.127 | 0.35 | 0.412 | 0.0507 | 0.201 |
| OSGEPL1 | 0.142 | 1.67 | 0.579 | 0.0528 | 0.211 |
| SLC30A1 | 0.121 | 0.108 | 0.303 | 0.0391 | 0.138 |
| ZNF576 | 0.0991 | 0.276 | 0.211 | 0.0452 | 0.176 |
| FAS | 0.0982 | 0.12 | 0.293 | 0.0173 | 0.0969 |
| CD320 | 0.0994 | 0.477 | 0.271 | 0.0247 | 0.106 |
| MLLT11 | 0.0668 | 0.271 | 0.244 | 0.0187 | 0.151 |
| OPN3 | 0.105 | 0.257 | 0.268 | 0.0504 | 0.172 |
| ZMYM2 | 0.0749 | 0.171 | 0.229 | 0.0079 | 0.231 |
| ATP6V1H | 0.0736 | 0.177 | 0.17 | 0.0361 | 0.115 |
| WDR7 | 0.468 | 0.889 | -0.0149 | 0.172 | 0.277 |
| KHDC4 | 0.0909 | 0.162 | 0.355 | 0.0187 | 0.0841 |
| LRRC59 | 0.107 | 0.765 | 0.479 | 0.000726 | 0.343 |
| SLC7A10 | 0.0862 | 0.131 | 0.243 | 0.0165 | 0.143 |
| RAMP2 | 0.0615 | 0.0987 | 0.328 | 0.0101 | 0.145 |
| PSMB4 | 0.303 | 0.65 | 0.275 | 0.0515 | 0.188 |
| DENND1B | 0.064 | 0.426 | 0.221 | 0.0175 | 0.177 |
| MRAP | 0.187 | 0.187 | 0.315 | 0.0317 | 0.279 |
| TAB2 | 0.089 | 0.0802 | 0.222 | 0.0287 | 0.0623 |
| SOWAHC | 0.0647 | 0.131 | 0.29 | 0.0454 | 0.172 |
| SSTR3 | 0.163 | 0.152 | 0.277 | 0.0107 | 0.103 |
| C19orf44 | 0.331 | 0.254 | 0.292 | 0.0906 | 0.72 |
| INTS13 | 0.0311 | 0.0334 | 0.234 | 0.0162 | 0.116 |
| RGS13 | 0.068 | 0.328 | 0.265 | 0.0214 | 0.203 |
| ATP5F1B | 0.321 | 0.544 | 0.381 | 0.0659 | 0.467 |
| CD14 | 0.0867 | 0.236 | 0.258 | 0.0266 | 0.117 |
| ROBO3 | 0.12 | 0.736 | 0.37 | 0.0117 | 0.221 |
| MAN1B1 | 0.144 | 0.251 | 0.382 | 0.0102 | 0.173 |
| HSPB2 | 0.154 | 0.353 | 0.227 | 0.0136 | 0.148 |
| KRT34 | 0.0977 | 0.0769 | 0.313 | 0.0529 | 0.0684 |

The list goes on; the last 9 above are carried over.
| gene symbol | BNIP3L mRNA, set 1 | NDRG1 mRNA, set 1 | BNIP3 mRNA, set 1 | ALDOC mRNA, set 1 | ACSL5 mRNA, set 1 |
| --- | --- | --- | --- | --- | --- |
| C19orf44 | 0.331 | 0.254 | 0.292 | 0.0906 | 0.72 |
| INTS13 | 0.0311 | 0.0334 | 0.234 | 0.0162 | 0.116 |
| RGS13 | 0.068 | 0.328 | 0.265 | 0.0214 | 0.203 |
| ATP5F1B | 0.321 | 0.544 | 0.381 | 0.0659 | 0.467 |
| CD14 | 0.0867 | 0.236 | 0.258 | 0.0266 | 0.117 |
| ROBO3 | 0.12 | 0.736 | 0.37 | 0.0117 | 0.221 |
| MAN1B1 | 0.144 | 0.251 | 0.382 | 0.0102 | 0.173 |
| HSPB2 | 0.154 | 0.353 | 0.227 | 0.0136 | 0.148 |
| KRT34 | 0.0977 | 0.0769 | 0.313 | 0.0529 | 0.0684 |
| ACSM5 | 0.262 | 0.449 | 0.58 | 0.0596 | 0.421 |
| SPTBN4 | 0.38 | 1.19 | 0.608 | 0.0188 | 0.246 |
| PITX1 | 0.112 | 0.059 | 0.345 | 0.0094 | 0.17 |
| TXNDC16 | 0.0977 | 0.108 | 0.202 | 0.0195 | 0.336 |
| MTX2 | 0.0365 | 0.0471 | 0.29 | 0.00825 | 0.0583 |
| VTN | 0.206 | 0.208 | 0.24 | 0.00914 | 0.251 |
| CTSD | 0.0961 | 0.0878 | 0.266 | 0.00472 | 0.17 |
| CAPN6 | 0.119 | 0.228 | 0.428 | 0.0208 | 0.0771 |
| CD58 | 0.241 | 0.212 | 0.592 | 0.0214 | 0.311 |
| CSNK1D | 0.102 | 0.103 | 0.227 | 0.00426 | 0.408 |
| BPGM | 0.0486 | 0.407 | 0.177 | 0.0123 | 0.199 |
| DPF1 | 0.0432 | 0.182 | 0.2 | 0.0201 | 0.0781 |
| SNRNP70 | 0.112 | 0.783 | 0.238 | 0.057 | 0.151 |
| BUB1 | 0.0887 | 0.409 | 0.368 | 0.00372 | 0.229 |
| IRAK4 | 0.0734 | 0.123 | 0.254 | 0.0187 | 0.112 |
| CPQ | 0.16 | 0.839 | 0.23 | 0.048 | 0.178 |
| PTPN14 | 0.0489 | 0.101 | 0.311 | 0.0169 | 0.145 |
| ERV3-2 | 0.0505 | 0.098 | 0.103 | 0.0257 | 0.379 |
| HIBADH | 0.183 | 1.01 | 0.808 | -0.0462 | 1.11 |
| CPAP | 0.21 | 0.68 | 0.457 | 0.0384 | 0.282 |
| ZBED1 | 0.133 | 0.156 | 0.225 | 0.0384 | 0.204 |
| IFNW1 | 0.559 | 2.61 | 0.79 | 0.047 | 0.177 |
| COLEC10 | 0.0788 | 0.23 | 0.281 | 0.0464 | 0.241 |
| TPTE | 0.0497 | 0.0974 | 0.28 | 0.0281 | 0.0868 |
| AHCYL1 | 0.111 | 0.0874 | 0.291 | 0.055 | 0.17 |
| CDK4 | 0.0715 | 0.184 | 0.3 | 0.00354 | 0.168 |
